Test results published in patent US6046168A, “Peptide inhibits blood triglyceride level” (Hankyu-Kyoei Bussan Co., Ltd., priority 1993, dated 2000).
At least one peptide structure holds a part that was inferred or is arguable (an end, a ring closure or a residue). Residues, ends and D or L forms follow the SMILES beside them. No end group written: not given here.

Test system: Healthy albino mice
Test: Serum TG elevation inhibiting action at the time of in vivo lipid loading (olive oil)
Details: for ID50: Dose (mg/mouse) exhibiting 50% inhibition: oral, mice loaded with 250 mg olive oil, blood TG after 3 hours; for Specific Activity: relative to the proteolysate (= 1), times
Description: Serum TG elevation inhibiting action at the time of in vivo lipid loading was examined on the three peptides of the invention inhibiting elevations of TG levels in blood (i.e., the peptide having the amino acid sequence of SEQ ID NO: 1 and the peptides Val-Thr-Leu and Val-Tyr-Pro synthesized by the method described in Example 4). Healthy albino mice (5-10 weeks old; body weight: about 20-30 g) were used in this experiment. To each mouse, 250 mg of olive oil and an aqueous solution of the above peptide were administered orally. Three hours thereafter, blood was collected under anesthesia with Nembutal. After separation of the blood, the TG level in blood was determined.

CC(C)[C@H](N)C(=O)N[C@@H](Cc1ccc(O)cc1)C(=O)N1CCC[C@H]1C(=O)O [Val--Tyr--Pro, Val-Tyr-Pro] (H-Val-Tyr-Pro-OH)
ID50: Dose (mg/mouse) exhibiting 50% inhibition: 0.34 mg/mouse
Specific Activity: 82

LVVYPWT [SEQ ID NO: 1]
ID50: Dose (mg/mouse) exhibiting 50% inhibition: 5.6 × 10^-4 mg/mouse
Specific Activity: 50000
